Reference: the supplement of paper PMC11006884
What follows is the remainder of the data, with few or none of the targets with a hit. Single values of this set are uncertain. The entries are a selection whose mix differs from that of the whole data set.

Chains of the proteins cited; added tags and fusions are not shown. Lines headed by an entry give the natural chain unless they say otherwise; changes in a name come on top.
UniProt O43237, whole entry, looked up: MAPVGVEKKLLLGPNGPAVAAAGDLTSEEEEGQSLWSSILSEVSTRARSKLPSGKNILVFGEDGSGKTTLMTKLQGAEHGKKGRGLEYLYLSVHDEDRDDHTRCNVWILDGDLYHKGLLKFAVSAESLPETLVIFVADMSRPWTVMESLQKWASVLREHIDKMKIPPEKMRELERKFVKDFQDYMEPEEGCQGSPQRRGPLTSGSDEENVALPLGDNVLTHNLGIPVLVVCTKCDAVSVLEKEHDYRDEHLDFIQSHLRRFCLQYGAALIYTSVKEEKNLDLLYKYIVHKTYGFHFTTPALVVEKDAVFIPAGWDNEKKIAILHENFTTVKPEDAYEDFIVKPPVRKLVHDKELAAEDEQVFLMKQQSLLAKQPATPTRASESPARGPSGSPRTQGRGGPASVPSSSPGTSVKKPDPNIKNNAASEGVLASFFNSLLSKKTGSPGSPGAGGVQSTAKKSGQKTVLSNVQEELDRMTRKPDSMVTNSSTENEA
UniProt O14880: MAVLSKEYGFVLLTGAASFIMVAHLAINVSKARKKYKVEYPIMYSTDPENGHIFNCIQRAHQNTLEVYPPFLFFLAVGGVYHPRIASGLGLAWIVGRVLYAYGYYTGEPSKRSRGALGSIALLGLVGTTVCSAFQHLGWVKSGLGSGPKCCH
UniProt O43159: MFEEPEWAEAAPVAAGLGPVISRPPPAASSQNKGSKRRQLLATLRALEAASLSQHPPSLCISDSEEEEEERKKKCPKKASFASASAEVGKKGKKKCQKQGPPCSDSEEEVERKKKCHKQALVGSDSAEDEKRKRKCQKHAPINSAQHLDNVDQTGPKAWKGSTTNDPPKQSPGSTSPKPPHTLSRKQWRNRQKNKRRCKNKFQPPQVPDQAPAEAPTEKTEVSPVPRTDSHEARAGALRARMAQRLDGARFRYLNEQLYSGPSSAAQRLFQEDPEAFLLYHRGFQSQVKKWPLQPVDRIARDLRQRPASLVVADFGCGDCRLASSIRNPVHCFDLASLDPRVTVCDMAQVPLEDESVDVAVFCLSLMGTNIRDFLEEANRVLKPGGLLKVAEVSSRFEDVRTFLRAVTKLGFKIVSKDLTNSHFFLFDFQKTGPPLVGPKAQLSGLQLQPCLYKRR
UniProt B3KU38: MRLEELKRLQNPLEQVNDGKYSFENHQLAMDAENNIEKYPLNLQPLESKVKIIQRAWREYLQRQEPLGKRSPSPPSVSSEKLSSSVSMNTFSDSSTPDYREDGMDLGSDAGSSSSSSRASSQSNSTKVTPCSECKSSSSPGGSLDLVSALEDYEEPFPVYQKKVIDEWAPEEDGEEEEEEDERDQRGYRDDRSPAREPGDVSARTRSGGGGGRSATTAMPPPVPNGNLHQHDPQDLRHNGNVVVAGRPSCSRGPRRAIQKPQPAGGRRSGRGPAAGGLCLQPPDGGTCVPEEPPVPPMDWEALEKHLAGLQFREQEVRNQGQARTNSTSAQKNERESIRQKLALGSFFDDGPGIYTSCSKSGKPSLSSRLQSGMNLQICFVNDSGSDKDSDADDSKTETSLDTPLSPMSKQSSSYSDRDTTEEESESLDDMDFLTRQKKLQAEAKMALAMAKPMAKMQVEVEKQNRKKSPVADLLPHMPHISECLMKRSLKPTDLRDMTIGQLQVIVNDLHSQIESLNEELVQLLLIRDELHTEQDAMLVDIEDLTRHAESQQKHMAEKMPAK
UniProt O00487, whole entry, looked up: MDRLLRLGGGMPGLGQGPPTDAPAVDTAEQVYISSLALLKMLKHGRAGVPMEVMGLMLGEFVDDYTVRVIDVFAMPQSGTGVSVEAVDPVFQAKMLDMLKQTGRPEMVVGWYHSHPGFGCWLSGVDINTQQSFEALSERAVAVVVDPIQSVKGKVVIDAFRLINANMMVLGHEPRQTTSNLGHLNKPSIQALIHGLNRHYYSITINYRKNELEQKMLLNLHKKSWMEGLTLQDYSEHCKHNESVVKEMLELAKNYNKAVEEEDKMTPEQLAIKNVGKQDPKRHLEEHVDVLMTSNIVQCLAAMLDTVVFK
UniProt O15347: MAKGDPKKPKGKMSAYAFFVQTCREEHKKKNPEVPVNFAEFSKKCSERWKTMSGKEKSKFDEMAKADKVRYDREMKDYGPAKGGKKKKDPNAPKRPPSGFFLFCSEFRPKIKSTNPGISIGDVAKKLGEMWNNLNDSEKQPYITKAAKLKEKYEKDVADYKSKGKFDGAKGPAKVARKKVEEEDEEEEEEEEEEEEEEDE
UniProt O14617: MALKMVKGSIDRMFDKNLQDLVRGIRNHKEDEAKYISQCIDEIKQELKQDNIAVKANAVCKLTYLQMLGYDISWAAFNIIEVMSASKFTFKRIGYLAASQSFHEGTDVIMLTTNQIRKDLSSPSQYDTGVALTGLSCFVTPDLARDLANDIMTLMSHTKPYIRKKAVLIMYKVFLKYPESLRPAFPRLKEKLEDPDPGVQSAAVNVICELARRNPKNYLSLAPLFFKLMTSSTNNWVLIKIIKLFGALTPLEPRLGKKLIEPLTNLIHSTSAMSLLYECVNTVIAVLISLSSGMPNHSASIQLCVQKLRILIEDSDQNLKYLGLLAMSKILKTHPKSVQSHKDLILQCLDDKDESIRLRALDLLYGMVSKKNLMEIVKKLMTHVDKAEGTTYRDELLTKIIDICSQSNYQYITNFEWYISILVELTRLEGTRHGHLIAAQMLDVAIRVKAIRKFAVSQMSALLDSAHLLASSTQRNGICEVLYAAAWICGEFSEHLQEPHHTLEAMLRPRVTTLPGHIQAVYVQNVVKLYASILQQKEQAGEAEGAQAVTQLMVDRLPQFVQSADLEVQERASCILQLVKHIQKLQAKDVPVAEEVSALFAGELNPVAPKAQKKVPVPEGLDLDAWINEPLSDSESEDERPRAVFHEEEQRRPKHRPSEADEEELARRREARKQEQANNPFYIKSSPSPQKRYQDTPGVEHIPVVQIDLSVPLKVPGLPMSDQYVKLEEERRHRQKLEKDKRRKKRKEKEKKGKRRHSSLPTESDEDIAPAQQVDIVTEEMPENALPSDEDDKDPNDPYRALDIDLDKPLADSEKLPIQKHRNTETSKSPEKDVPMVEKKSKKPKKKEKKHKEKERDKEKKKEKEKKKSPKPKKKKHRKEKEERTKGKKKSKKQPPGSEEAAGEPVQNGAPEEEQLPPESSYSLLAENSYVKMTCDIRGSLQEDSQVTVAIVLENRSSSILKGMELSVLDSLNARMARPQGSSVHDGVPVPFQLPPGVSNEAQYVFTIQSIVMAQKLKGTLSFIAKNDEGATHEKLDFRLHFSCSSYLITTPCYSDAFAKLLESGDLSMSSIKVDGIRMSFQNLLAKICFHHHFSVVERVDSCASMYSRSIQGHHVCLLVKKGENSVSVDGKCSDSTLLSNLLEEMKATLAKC
UniProt O00471: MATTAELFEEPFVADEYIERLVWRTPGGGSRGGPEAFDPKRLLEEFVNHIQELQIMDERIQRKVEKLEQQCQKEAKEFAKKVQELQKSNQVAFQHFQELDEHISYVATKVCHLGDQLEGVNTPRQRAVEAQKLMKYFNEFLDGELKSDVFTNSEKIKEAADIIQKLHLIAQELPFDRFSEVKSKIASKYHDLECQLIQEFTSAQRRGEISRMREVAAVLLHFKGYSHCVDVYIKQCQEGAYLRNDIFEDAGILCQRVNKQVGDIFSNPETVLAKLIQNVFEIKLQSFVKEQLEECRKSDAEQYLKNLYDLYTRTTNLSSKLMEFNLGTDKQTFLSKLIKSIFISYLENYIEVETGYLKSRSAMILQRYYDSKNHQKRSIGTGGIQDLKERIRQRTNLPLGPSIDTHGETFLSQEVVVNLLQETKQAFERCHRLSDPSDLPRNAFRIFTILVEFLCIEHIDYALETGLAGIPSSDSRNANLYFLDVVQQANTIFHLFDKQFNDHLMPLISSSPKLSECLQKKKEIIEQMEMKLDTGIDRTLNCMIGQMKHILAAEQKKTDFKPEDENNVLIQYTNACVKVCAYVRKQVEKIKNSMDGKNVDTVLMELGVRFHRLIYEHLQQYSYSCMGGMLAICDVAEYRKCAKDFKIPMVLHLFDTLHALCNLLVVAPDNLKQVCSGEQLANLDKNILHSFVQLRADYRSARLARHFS
UniProt O14497, whole entry, looked up: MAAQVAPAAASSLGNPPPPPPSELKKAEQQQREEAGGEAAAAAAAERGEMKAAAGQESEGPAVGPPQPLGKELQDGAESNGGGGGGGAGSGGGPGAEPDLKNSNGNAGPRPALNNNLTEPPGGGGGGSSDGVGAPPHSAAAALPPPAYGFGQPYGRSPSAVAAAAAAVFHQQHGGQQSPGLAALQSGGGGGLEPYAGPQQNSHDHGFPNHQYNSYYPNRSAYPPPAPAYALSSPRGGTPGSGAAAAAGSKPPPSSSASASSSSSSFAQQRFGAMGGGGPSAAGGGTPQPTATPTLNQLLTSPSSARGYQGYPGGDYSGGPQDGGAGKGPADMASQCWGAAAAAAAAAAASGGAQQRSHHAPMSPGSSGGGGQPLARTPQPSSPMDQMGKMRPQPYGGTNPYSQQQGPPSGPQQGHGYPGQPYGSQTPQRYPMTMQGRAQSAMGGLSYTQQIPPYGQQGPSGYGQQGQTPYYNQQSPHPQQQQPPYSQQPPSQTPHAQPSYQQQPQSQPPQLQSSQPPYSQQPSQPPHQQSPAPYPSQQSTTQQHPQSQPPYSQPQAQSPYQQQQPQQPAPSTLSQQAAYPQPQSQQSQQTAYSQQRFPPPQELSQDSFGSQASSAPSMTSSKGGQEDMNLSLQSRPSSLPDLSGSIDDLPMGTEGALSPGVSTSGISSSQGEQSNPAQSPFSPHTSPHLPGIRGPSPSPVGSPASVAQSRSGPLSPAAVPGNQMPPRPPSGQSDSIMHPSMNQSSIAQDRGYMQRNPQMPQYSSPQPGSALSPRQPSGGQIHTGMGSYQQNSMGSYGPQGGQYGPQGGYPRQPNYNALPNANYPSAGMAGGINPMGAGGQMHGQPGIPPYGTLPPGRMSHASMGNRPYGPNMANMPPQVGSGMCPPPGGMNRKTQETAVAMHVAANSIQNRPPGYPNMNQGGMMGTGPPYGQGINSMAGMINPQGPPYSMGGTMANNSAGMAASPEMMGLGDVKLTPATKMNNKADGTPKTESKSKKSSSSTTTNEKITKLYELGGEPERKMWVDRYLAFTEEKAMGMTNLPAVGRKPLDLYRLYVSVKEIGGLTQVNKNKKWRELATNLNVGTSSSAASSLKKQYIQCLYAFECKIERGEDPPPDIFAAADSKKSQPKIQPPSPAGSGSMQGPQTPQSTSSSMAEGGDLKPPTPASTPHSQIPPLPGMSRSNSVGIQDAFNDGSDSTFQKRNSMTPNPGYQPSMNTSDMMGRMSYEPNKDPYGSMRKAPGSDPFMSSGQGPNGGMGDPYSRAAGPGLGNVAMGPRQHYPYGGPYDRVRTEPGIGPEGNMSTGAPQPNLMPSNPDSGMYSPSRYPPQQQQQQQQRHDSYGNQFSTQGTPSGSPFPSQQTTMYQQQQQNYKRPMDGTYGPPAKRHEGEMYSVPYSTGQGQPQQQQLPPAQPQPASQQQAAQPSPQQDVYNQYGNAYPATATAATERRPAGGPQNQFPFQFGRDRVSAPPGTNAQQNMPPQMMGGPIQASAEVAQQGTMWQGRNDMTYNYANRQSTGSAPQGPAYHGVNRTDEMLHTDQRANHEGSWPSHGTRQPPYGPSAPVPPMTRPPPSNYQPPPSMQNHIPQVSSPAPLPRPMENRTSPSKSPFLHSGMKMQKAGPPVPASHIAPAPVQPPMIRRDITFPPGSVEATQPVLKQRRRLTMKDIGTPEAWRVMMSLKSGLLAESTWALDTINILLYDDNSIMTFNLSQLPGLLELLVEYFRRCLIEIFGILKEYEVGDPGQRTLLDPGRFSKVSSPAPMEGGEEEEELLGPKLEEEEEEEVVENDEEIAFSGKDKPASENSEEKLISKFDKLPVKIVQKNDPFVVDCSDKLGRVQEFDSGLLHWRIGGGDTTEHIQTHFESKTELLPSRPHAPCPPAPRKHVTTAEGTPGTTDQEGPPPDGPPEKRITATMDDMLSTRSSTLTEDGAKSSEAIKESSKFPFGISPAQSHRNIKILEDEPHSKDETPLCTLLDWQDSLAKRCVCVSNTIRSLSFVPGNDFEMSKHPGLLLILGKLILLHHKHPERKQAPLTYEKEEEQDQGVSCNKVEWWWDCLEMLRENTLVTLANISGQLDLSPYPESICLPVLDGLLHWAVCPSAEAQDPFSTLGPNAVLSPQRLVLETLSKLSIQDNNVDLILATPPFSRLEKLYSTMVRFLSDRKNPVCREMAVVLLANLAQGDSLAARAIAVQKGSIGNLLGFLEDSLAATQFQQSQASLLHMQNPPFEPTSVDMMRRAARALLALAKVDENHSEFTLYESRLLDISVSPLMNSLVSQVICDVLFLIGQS
UniProt O14618: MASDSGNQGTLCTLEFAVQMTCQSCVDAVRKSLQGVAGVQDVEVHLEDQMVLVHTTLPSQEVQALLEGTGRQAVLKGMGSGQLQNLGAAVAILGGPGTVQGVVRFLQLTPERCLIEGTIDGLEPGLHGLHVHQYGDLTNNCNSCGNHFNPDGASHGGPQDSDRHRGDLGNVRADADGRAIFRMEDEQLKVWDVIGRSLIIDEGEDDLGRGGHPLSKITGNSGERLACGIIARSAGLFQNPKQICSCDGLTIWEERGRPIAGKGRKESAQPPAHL

compound: COC(=O)/C=C/c1ccccc1 [methyl cinnamate]; assay: log2 ratio of iodoacetamide-alkyne labeling of the cysteine site, DMSO over compound (competition); higher = stronger covalent engagement of the cysteine by the compound, active = 1 or more; conditions: 500 µM; treatment time 1 h; system: HEK293T cell lysate
Method in brief: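 Electrophile (500 µM) or vehicle was added to HEK293T lysate (2 mg/mL) for 1 h at ambient temperature before iodoacetamide alkyne labelling (1 h) and click coupling to sCIP-TMT reagents. After pooling, overnight trypsin digestion at 37 °C, streptavidin enrichment and acid elution, peptides were measured by Orbitrap Eclipse LC-MS/MS with FAIMS and quantified in FragPipe. Each cysteine's log2 competition ratio compares mean control-channel with mean compound-channel reporter intensity, control over compound. Data came from duplicate channels across three replicates, excluding cysteines quantified in only one replicate.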

Target	log2 ratio of iodoacetamide-alkyne labeling
DYNC1LI2 C191 (UniProt O43237)	inactive: 0.33
MGST3 C56 (UniProt O14880)	inactive: 0.126
UniProt O43159_C317	inactive: 0.0311
UniProt O43159_C320	inactive: 0.0311
XPO1 C829 (UniProt O14980)	inactive: 0.0643
OGT C962 (UniProt O15294)	inactive: -0.0988
INPPL1 C5 (UniProt O15357)	inactive: 0.0888
UniProt B3KU38_C358	inactive: 0.312
UniProt O00487_C238	inactive: 0.105
HMGB3 C23 (UniProt O15347)	inactive: -0.0532
AP3D1 C1133 (UniProt O14617)	inactive: 0.249
PHGDH C369 (UniProt O43175)	inactive: 0.501
EXOC5 C194 (UniProt O00471)	inactive: 0.21
ARID1A C1827 (UniProt O14497)	inactive: 0.33
UniProt O14618_C244	inactive: 0.107
ARID1A C336 (UniProt O14497)	inactive: 0.409
DYNC1LI2 C104 (UniProt O43237)	inactive: 0.249
PHGDH C281 (UniProt O43175)	inactive: 0.212
DVL2 C412 (UniProt O14641)	inactive: 0.153
HGS C212 (UniProt O14964)	inactive: 0.149
PIK3R2 C396 (UniProt O00459)	inactive: -0.0204
IPO5 C915 (UniProt O00410)	inactive: -0.0907

A portion from the list above, as a working copy:
Target	log2 ratio of iodoacetamide-alkyne labeling
ARID1A C336 (UniProt O14497)	inactive: 0.409
DYNC1LI2 C104 (UniProt O43237)	inactive: 0.249
